Measured values: the supplement of paper PMC3334620
Whole data set: some 33,000 sequences, median “E-score (-0.5 to 0.5)” near -0.0034, cut for the highest 2% near 0.25. This is one part of the list.

Molecular target: T1, Yap3 (UniProt P38749)
T1 sequence: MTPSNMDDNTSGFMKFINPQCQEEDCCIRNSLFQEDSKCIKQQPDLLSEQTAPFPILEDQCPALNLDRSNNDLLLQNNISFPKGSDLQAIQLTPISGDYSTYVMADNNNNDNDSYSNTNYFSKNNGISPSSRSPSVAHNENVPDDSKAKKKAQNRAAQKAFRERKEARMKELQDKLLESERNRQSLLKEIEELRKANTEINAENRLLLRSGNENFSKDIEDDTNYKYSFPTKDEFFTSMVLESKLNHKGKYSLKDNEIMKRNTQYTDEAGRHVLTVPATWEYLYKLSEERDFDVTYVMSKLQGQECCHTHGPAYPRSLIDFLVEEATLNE
Assay: PBM E-score (8-mer binding enrichment) (E-score (-0.5 to 0.5)); higher = stronger / more preferred TF binding
Details: protein concentration: 100 nM; construct: GST-full length
How it was run: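 Yeast transcription factors, full-length or as DNA-binding domains, were expressed with a GST tag using PURExpress in vitro transcription/translation. At about 100-200 nM they were applied to universal all-10-mer Agilent arrays, double-stranded by primer extension on fresh or once-stripped slides. Fluorescent anti-GST detected bound protein, and masliner normalised the scans. E-scores for ungapped eight-base words, pooled with reverse complements, came from the Universal PBM Analysis Suite.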

Point of comparison: CAAAAACA, “PBM E-score” value 0.0595. Against it:
- ACAAGGAC — lower, -0.0164
- AGGGAATA — higher, 0.15
- TATATATA — higher, 0.304
- ATGCATGG — higher, 0.0626
- CATGGGGA — lower, -0.102
- ATTCCAGA — higher, 0.101
- GATGTCAA — lower, -0.0125
- TATCCGCA — higher, 0.236
- GAGAATCA — lower, -0.113
- AGAACAGA — higher, 0.0919
- CTTTTGAC — lower, 0.00804
- TGGAAAAA — higher, 0.206
- CGACCAAG — lower, -0.15
- AGTACTAG — higher, 0.0792
- AGTGCGGG — lower, -0.084
- CATGCTCC — lower, -0.141
- CTCTTCAG — lower, -0.088
- CCGACATC — lower, -0.0784
- AGGCGCTG — lower, 0.0232
- ATGTTCAC — lower, -0.0242
- CGTTTGTA — higher, 0.16
- GCCGTTTA — lower, 0.0344
- CCTACGGA — lower, -0.232
- GAAGTGGC — lower, -0.0936
- GGGCGACC — lower, -0.247
- GCGGAACA — lower, -0.105
- CGATATAG — higher, 0.126
- CACGTCTG — higher, 0.0742
- CAGCTAGG — lower, -0.14
- ACGTCACA — higher, 0.0829
- CGGTGAAC — higher, 0.0707
- CAACTGCA — lower, -0.0467
- AAATACAC — higher, 0.242
- AACCTTGC — lower, 0.00598
- CTTTCAAC — higher, 0.19
- CCTCAGGC — lower, -0.249
- CGATAAAA — higher, 0.195
- ACCCTTAC — lower, 0.0235
- AAGACCGG — lower, -0.124
- ACATATGA — higher, 0.102
- GTCGTCCA — lower, -0.0463
- CGGACTCC — lower, -0.125
- AGGGTTAG — lower, -0.125
- AATGGGAC — lower, -0.121
- CACGATCG — lower, 0.056
- CAACATAA — higher, 0.297
- CAAATCGG — lower, -0.0566
- CAGGTGCA — lower, -0.0752
- GTGAGCAC — lower, -0.173
- ACCCGTCA — lower, -0.162
- AGTGCAAA — higher, 0.225
- CTTTGTTA — higher, 0.184
- CACGCTCG — lower, -0.0517
- AGCGCCCC — lower, -0.384
- CTTGAGGA — lower, -0.0886
- CGGGACCC — lower, -0.398
- ATTATGAC — higher, 0.14
- GAGGTAAC — lower, 0.0442
- CCGCCATC — lower, -0.21
- TATCTACA — higher, 0.195
- ACAAGAAC — higher, 0.216
- CAGCACAA — lower, 0.0241
- GTTGATTA — higher, 0.168
- CTAATCAG — higher, 0.0826
- ACGGGGCT — lower, -0.178
- CCTCGCCC — lower, -0.0977
- CCGCATTC — lower, 0.0142
- ACCACTCA — lower, -0.0995
- ATGTGAGA — higher, 0.124
- CGTGGCTC — lower, -0.321
- CAACCCTA — lower, 0.00408
- ATAGTCGC — lower, 0.00598
- ATCATTAC — higher, 0.243
- ATTACTCG — higher, 0.23
- ATACTGTG — lower, 0.0254
- CTTCTATC — lower, -0.0246
- CCGGCCTA — lower, -0.12
- AAGCCAGC — lower, -0.0187
- CATCCTCC — lower, -0.153
- GTAGCTTA — higher, 0.214
- AATGGCTG — lower, 2e-05
- AGAACTTG — higher, 0.134
- CGCGGCCA — lower, -0.088
- GAGTAAGC — lower, -0.0395
- CGTACATC — lower, 0.0265
- ATGAGGGG — lower, 0.0122
- ATACTCAC — lower, 0.0225
- CCACAGCG — lower, -0.016
- GCCCGCCA — lower, -0.26
- GGCGTCAA — higher, 0.0807
- ATTTTGTG — higher, 0.157
- ACCCGCAT — higher, 0.0749
- CAGCTTAG — lower, -0.00249
- ATTTGCAC — higher, 0.167
- ATTGCTTA — higher, 0.102
- ACCAGAAT — lower, 0.0458
- CTGTCGCA — lower, 0.0096
- ATAACGGC — higher, 0.107
- CATAAACG — higher, 0.176
- ACACATCG — lower, -0.0593
- GGTGCTAC — lower, -0.074
- AGCGGACC — lower, -0.135
- CCGGATTA — higher, 0.168
- GATTAGAC — lower, 0.0157
- GCACATGC — lower, 0.0239
- AGATACAA — higher, 0.157
- GGGTCAGA — lower, -0.342
- CTCTACAA — lower, 0.0523
- AACCGCAC — lower, -0.0316
- ACAGCGGA — lower, 0.0373
- AAGCGGGA — lower, -0.0138
- CCAACTGC — lower, -0.103
- CACCGAGA — lower, -0.00758
- ACATGAAG — lower, 0.0149
- CGCCCCAG — lower, -0.219
- CCTTGATC — lower, -0.161
- TTATATAA — higher, 0.418
- AGCGGCGG — lower, -0.0834
- AGCATATA — lower, 0.0558
- GAGCATGC — lower, -0.115
- CACAATGG — higher, 0.162
- CATCATTA — higher, 0.232
- AAGTTAAT — higher, 0.0825
- ACGAGAAA — higher, 0.0781
- AAATTGTC — higher, 0.154
- AAGTCCCG — lower, -0.1
- AGCTTTGC — lower, -0.109
- TAGATGCA — lower, -0.129
- GAGCCTCC — lower, -0.234
- ACTGTTCC — lower, -0.167
- ACATATCC — higher, 0.119
- CACTAGAG — lower, -0.0399
- AGTCGCGG — lower, -0.217
- TGCGGAAA — higher, 0.108
- AACAGCGG — higher, 0.0681
- CGGGCTAG — lower, -0.115
- GGTGGAAC — lower, -0.133
- TCTCGAAA — lower, 0.0459
- ACGTTACA — higher, 0.064
- ATTGGTAC — higher, 0.169
- ACTTTGCA — higher, 0.153
- ACCGATCA — lower, 0.0144
- CCAGCCTA — lower, -0.221
- CCGTGTTC — higher, 0.168
- TACTCAAA — lower, 0.041
- TACATGCA — higher, 0.141
- AACGAATC — higher, 0.208
- GATTGAAC — higher, 0.137
- ACGATATC — higher, 0.168
- CCCTTCCA — lower, -0.251
- AATGCTCG — higher, 0.19
- AACCCCGC — lower, -0.119
- CAATAAAC — higher, 0.169
- AATTGTTA — higher, 0.231
- ACCCAACT — lower, -0.0173
- CCACCTTC — lower, -0.232
- CCCCGCAA — lower, -0.0264
- CCTCTCAA — higher, 0.0828
- CAGTGAGG — lower, -0.287
- GGTTCGAA — higher, 0.153
- TCTGTCCA — lower, -0.0138
- AGTCCCAT — lower, -0.224
- TCAGGGGA — lower, -0.0601
- AAATCTCG — lower, 0.0309
- GAACCCTA — lower, -0.054
- AGAGTTTC — lower, -0.256
- CAGGAGTA — lower, -0.0122
- CGGATTTC — higher, 0.109
- GTCCGCAC — lower, -0.00347
- AATAGAAA — higher, 0.138
- CACAAAGC — higher, 0.1
